Measurements taken from US11472781B2, “2-aminoaryl-5-aryloxazole analogs for the treatment of neurodegenerative diseases” (Southern Research Institute, priority 2018, dated 2022).
Some entries share one result that the patent states for a list of compounds.

Assay: Microsomal stability studies
Format: in vitro ADME

In the case of O=C(/C=C\Nc1ccccc1Br)c1ccc2c(c1)OCO2 [Compound 1, (Z)-1-(Benzo[d][1,3]dioxol-5-yl)-3-((2-bromophenyl)amino)prop-2-en-1-one], the “stability in microsomal stability studies” value is reported as at most 20 min.
In the case of Cc1cccnc1Nc1nc(-c2ccccn2)cs1 [Compound 2], the “stability in microsomal stability studies” value is reported as at most 20 min.
